Percent effect of library compounds

From ChEMBL document CHEMBL3988442, “University of Dundee, Small-Polar-MMV Screening Library” (2021).

Mtb cholesterol medium: 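Growth of Mycobacterium tuberculosis over 4 days (cholesterol / DPPC medium with tyloxapol); the read-out is not stated. Concentration: 500 µM. Higher reads as more growth inhibition (inferred: compounds with an IC50 in retests scored well above the rest). About 18,000 compounds were tested under these conditions; 5% (about 900) showed 50% or more at least once.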
Mtb glucose medium: 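Growth of Mycobacterium tuberculosis over 3 days (7H9 medium with glucose and tyloxapol); the read-out is not stated. Concentration: 500 µM. Higher reads as more growth inhibition (inferred: compounds with an IC50 in retests scored well above the rest). Of about 18,000 compounds tested this way, about 1,400 (7.9%) reached 50% or more in at least one test.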

Values are the deposited “Percent Effect”, in %. The record does not define 0% and 100%; most values in the screen are far below 50% and negative numbers occur (in some assays of this library far below -100). The compounds are a random part of those screened.

Compound,Mtb cholesterol medium,Mtb glucose medium
CC(C)N1CCOC(Cn2cc(Br)cn2)C1 (centres unmarked),6.497,21
NC1CCCc2ccc(F)cc21 (centres unmarked),-24.46,17.9
Cc1cc(C(=O)NCCCN2CCOCC2)c(C)o1,7.613,-0.9746
CC1CCCN(C(=O)CCN2CCOC2=O)C1 (centres unmarked),15.29,14.72
CCCNCCN1CCN(CC)CC1,-5.962,-2.581
Cc1c(Br)cccc1C(=O)NC(C(N)=O)C(C)C (centres unmarked),-15.68,-17.78
CC1(C)C(=O)NCCN1C(=O)Cc1ccccc1Cl,9.549,21.64
NC(=O)CN1CCCC(C(=O)NC2CCCCC2)C1 (centres unmarked),-4.109,5.936
CN(CCC#N)C(=O)CN1CCc2ccccc2C1,4.213,17.11
Cc1ccc(-n2nnc(C#N)c2C)cc1,42.49,-1.566
CNc1nc(NCC(C)CO)ncc1Br (centres unmarked),-7.349,2.915
Cc1ncn(CC(=O)NCCSc2nnnn2C)c1C,-0.7999,4.44
N#Cc1ccccc1N1CCN(CC(N)=O)CC1=O,2.38,1.181
Cc1nnsc1CN(C)Cc1ccc(N(C)C)nc1,38.08,48.87
COCC1CCN(Cc2cc(C(C)=O)cn2C)C1 (centres unmarked),8.496,2.551
CC(C1CC1)N(C)CC(=O)Nc1sccc1C(N)=O (centres unmarked),-2.131,-2.943
O=S(=O)(N[C@@H]1CCOC[C@H]1O)c1cc(F)cc(F)c1,3.592,8.244
CC(=O)Nc1cn[nH]c1,3.186,10.85
CC(C)(O)C(C)(C)NCC(=O)N1CCc2sccc2C1,8.702,13.07
CN(C)Cc1nnc(C2CCCCN2)o1 (centres unmarked),-0.67,-11.41
CC(C)Nc1cc(Cl)ccc1OCCS(C)(=O)=O,50.42,52.48
CCC(C)C(=O)NCCNc1cnccn1 (centres unmarked),5.718,18.26
CNC(=O)CSc1ncc(Br)cn1,-14.12,-5.773
COC(=O)Cn1c(=O)oc2ccccc21,-14.29,11.73
CSc1ncc(CN2CCC(NC(C)=O)C2)cn1 (centres unmarked),3.767,5.464
Cc1cccc(NCCCNC(=O)C(C)C)n1,9.83,9.837
COC(=O)CNCc1ccc(F)c(F)c1,-8.079,-1.99
CC(NS(=O)(=O)c1cccc(C#N)c1)c1ccncc1 (centres unmarked),12.71,31.56
CC(=O)Nc1ccc(F)c(S(=O)(=O)N2CCOCC2)c1,9.566,11.69
N#Cc1ccc(CCN)cc1,-3.114,11.16
CS(=O)(=O)NCCNC(=O)NCc1ccccc1F,-35.64,6.097
CC(=O)Nc1ccc(-c2nccc(C)n2)cc1,-17.69,28.28
CC1CCCN1S(=O)(=O)N1CC(N2CCNC2=O)C1 (centres unmarked),4.691,11.79
CC(C)n1cc(CN)nn1,-1.646,3.961
COc1ncccc1-c1ccc(S(N)(=O)=O)s1,14.15,31.23
COc1cc(CN2CCN(C(C)=O)CC2)cc(Br)c1O,2.926,-2.3
CN(C)c1ccc2c(c1)OCC(=O)N2,7.448,0.2965
Cc1cc(C(=O)CSc2nnc(N)[nH]2)c(C)s1,-2.03,33.18
CCN(CC)C(=O)c1cc(N(C)S(C)(=O)=O)ccc1Cl,7.96,25.1
O=C(c1cnccn1)N1CCCC1c1ccsc1 (centres unmarked),-2.983,14.8
FC(F)Oc1ccc(NCCn2ccnc2)nc1,34.71,40.37
CCNC(=O)C1(CN)CCC1,-5.739,5.166
CC(C)(C)CCS(N)(=O)=O,4.739,6.114
CCNC(=O)c1ccc(Cl)nn1,-6.698,-0.9749
CCC(C)(C)NC(=O)c1scnc1C,-8.337,-10.74
Cc1ncsc1CCCNC(=O)c1cnccn1,48.5,54.77
NC(=O)CN1CCC(COCc2ccccc2)C1 (centres unmarked),49.34,74.98
COC(=O)C(CN)N(C)Cc1ccccc1 (centres unmarked),19.85,19.29
O=C(c1ccc2ccccc2c1)N1CC[C@@H](O)C1,18.82,32.66
CCS(=O)(=O)c1ccc(C(C)=O)cc1,-2.13,0.621
Cn1nccc1C(=O)NC1Cc2ccccc2C1,21.06,44.25
CC(NCCO)c1ccc(Br)s1 (centres unmarked),3.556,11.5
CS(=O)(=O)NCCCN,-13.89,-9.498
CC(N)C(=O)N1CCC(Oc2ccccc2Cl)CC1 (centres unmarked),57.68,74.98
CCC(C(=O)NCc1ncc[nH]1)c1ccc(F)cc1 (centres unmarked),13.72,23.6
COCC(=O)NCc1cccc(Cn2ccnc2)c1,-4.913,7.781
CN(C)CC(=O)NC(C)(C(N)=O)c1cccc(Cl)c1 (centres unmarked),9.068,11.58
CN(Cc1ccc(Br)s1)CC(O)COCCO (centres unmarked),72.16,56.71

The last 6 entries again:

Compound,Mtb cholesterol medium,Mtb glucose medium
CS(=O)(=O)NCCCN,-13.89,-9.498
CC(N)C(=O)N1CCC(Oc2ccccc2Cl)CC1 (centres unmarked),57.68,74.98
CCC(C(=O)NCc1ncc[nH]1)c1ccc(F)cc1 (centres unmarked),13.72,23.6
COCC(=O)NCc1cccc(Cn2ccnc2)c1,-4.913,7.781
CN(C)CC(=O)NC(C)(C(N)=O)c1cccc(Cl)c1 (centres unmarked),9.068,11.58
CN(Cc1ccc(Br)s1)CC(O)COCCO (centres unmarked),72.16,56.71